Measured values taken from the supplement of paper PMC6078165.
Values are relative to the signal before dosing, not to a vehicle control; the signal also falls without drug.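 Fibroblast labels name human fibroblasts: mostly primary ones from tissues such as uterus (C12385, HUF), lung (H6013), bone (Hs27A), adrenal (HADF) and skin (WS1), plus mammary HMF and breast cancer-associated Hs343T. The cancer cells are basal-like or mesenchymal-like triple-negative breast cancer lines. The paper calls a changed response a hit when it shifts by more than 3x the replicate standard deviation. The tissue of the other fibroblasts is not given here.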

Tested on: BT20
Test: relative JC-1 red fluorescence (viability) vs pre-drug, coculture with fibroblast (fraction); higher = more viable cancer cells
Conditions: 100 µM
Description: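 JC-1 labelled TNBC cells cocultured 1:1 (1,500 cells each) with CellTrace Violet stained primary or stromal fibroblasts in 384-well plates in FluoroBrite medium, treated with one of 42 anticancer drugs at 0.1, 1, 10 or 100 uM. JC-1 red fluorescence (mitochondrial integrity in cancer cells only) was read by plate reader every 8 h for 72 h. Values are normalised to each well's pre-drug value. The stock of one drug was tenfold lower, so its dose labels may be too high.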

CC(=O)c1c(C)c2cnc(Nc3ccc(N4CCNCC4)cn3)nc2n(C2CCCC2)c1=O [Palbociclib]
relative JC-1 red fluorescence
Conditions	8 h	16 h	24 h	32 h	40 h	48 h	56 h	64 h	72 h
coculture fibroblast: C12385	0.847	0.62	0.442	0.313	0.242	0.214	0.1893	0.173	0.156
coculture fibroblast: H6013	0.376	0.238	0.246	0.177	0.147	0.123	0.117	0.0927	0.0741
coculture fibroblast: H6019	0.868	0.718	0.644	0.579	0.508	0.484	0.455	0.436	0.417
coculture fibroblast: H6076	0.791	0.986	0.862	0.81	0.803	0.768	0.73	0.695	0.647
coculture fibroblast: H6231	0.815	0.957	0.74	0.624	0.549	0.471	0.41	0.373	0.355
coculture fibroblast: HADF	0.526	0.388	0.416	0.343	0.334	0.307	0.303	0.29	0.262
coculture fibroblast: HCFa	0.737	0.461	0.462	0.389	0.373	0.352	0.357	0.348	0.326
coculture fibroblast: HCPF	0.781	0.9	0.832	0.722	0.627	0.546	0.514	0.478	0.424
coculture fibroblast: HHSteC	0.462	0.34	0.346	0.27	0.244	0.214	0.206	0.186	0.156
coculture fibroblast: HMF	0.823	0.9546	0.867	0.775	0.689	0.603	0.524	0.48	0.43
coculture fibroblast: HPFa	0.737	0.438	0.383	0.296	0.265	0.232	0.222	0.199	0.17
coculture fibroblast: HUF	0.916	0.721	0.597	0.506	0.424	0.371	0.333	0.301	0.279
coculture fibroblast: Hs5	0.788	0.917	0.7784	0.707	0.684	0.657	0.606	0.564	0.536
coculture fibroblast: Hs27A	0.73	0.55	0.491	0.475	0.444	0.436	0.435	0.418	0.392
coculture fibroblast: Hs343T	0.871	0.986	0.87	0.754	0.642	0.529	0.47	0.431	0.394
coculture fibroblast: WS1	0.851	0.651	0.517	0.413	0.349	0.32	0.295	0.272	0.253
